Results deposited as PubChem BioAssay AID1259425 (University of Nebraska Medical Center, 2018)
Here is a random part of about 14,000 deposited reagents. Reagents against one gene are numbered here. Further read-outs or replicates are left out here. Not stated in the record: the time to read-out.

- Assay: 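Find knockdowns that reproduce the gene expression pattern seen when KSR1 is lost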 (primary screen)
- Cells: HCT116 human colon cancer cells
- Reagent: siRNA pool against human genes, 50 nM siRNA
- Measured: 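mRNA of six signature genes measured together by branched-DNA assay after 50 nM siRNA pool, blank removed, divided by geometric mean of two housekeeping genes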
- Direction: BNIP3L mRNA: higher = more BNIP3L transcript after knockdown; NDRG1 mRNA: higher = more NDRG1 transcript after knockdown

The opening 2 entries, ahead of the listing:
| gene | reagent no. | BNIP3L mRNA, set 1 | NDRG1 mRNA, set 1 |
| --- | --- | --- | --- |
| LINC00308 (long independently transcribed non-coding RNA 308) | 1 | 0.156 | 0.0887 |
| CBX7 (chromobox 7) | 1 | 0.0671 | 0.116 |

The list itself, from the first entry:
| gene | reagent no. | BNIP3L mRNA, set 1 | NDRG1 mRNA, set 1 |
| --- | --- | --- | --- |
| LINC00308 (long independently transcribed non-coding RNA 308) | 1 | 0.156 | 0.0887 |
| CBX7 (chromobox 7) | 1 | 0.0671 | 0.116 |
| DISC1 (DISC1 scaffold protein) | 1 | 0.0726 | 0.109 |
| C1QB (complement C1q B chain) | 1 | 0.12 | 0.176 |
| NRDC (nardilysin convertase) | 1 | 0.139 | 0.274 |
| NECAP1 (NECAP endocytosis associated 1) | 1 | 0.199 | 0.194 |
| SLC41A3 | 1 | 0.144 | 0.572 |
| NBL1 (NBL1, DAN family BMP antagonist) | 1 | 0.0597 | 0.0749 |
| FHIT (fragile histidine triad diadenosine triphosphatase) | 1 | 0.1 | 0.232 |
| ZNF37A (zinc finger protein 37A) | 1 | 0.119 | 0.345 |
| NSD2 (nuclear receptor binding SET domain protein 2) | 1 | 0.0483 | 0.063 |
| CD55 (CD55 molecule (Cromer blood group)) | 1 | 0.0825 | 0.135 |
| GCC2 (GRIP and coiled-coil domain containing 2) | 1 | 0.151 | 0.192 |
| NCAPD2 (non-SMC condensin I complex subunit D2) | 1 | 0.155 | 0.241 |
| CAD | 1 | 0.102 | 0.383 |
| RFC1 (replication factor C subunit 1) | 1 | 0.0679 | 0.108 |
| BARHL1 (BarH like homeobox 1) | 1 | 0.143 | 0.325 |
| CAV1 (caveolin 1) | 1 | 0.0464 | 0.0944 |
| SCG5 (secretogranin V) | 1 | 0.156 | 0.236 |
| NDUFAF5 (NADH:ubiquinone oxidoreductase complex assembly factor 5) | 1 | 0.124 | 0.226 |
| DLL4 (delta like canonical Notch ligand 4) | 1 | 0.0613 | 0.11 |
| DENND2B (DENN domain containing 2B) | 1 | 0.123 | 0.116 |
| ABCA5 (ATP binding cassette subfamily A member 5) | 1 | 0.0728 | 0.248 |
| GSTK1 (glutathione S-transferase kappa 1) | 1 | 0.113 | 0.207 |
| POPDC3 (popeye domain cAMP effector 3) | 1 | 0.207 | 0.155 |
| TNNI3 (troponin I3, cardiac type) | 1 | 0.0567 | 0.0958 |
| PWP2 (PWP2 small subunit processome component) | 1 | 0.239 | 0.67 |
| FAM184B (family with sequence similarity 184 member B) | 1 | 0.101 | 0.128 |
| LINC01547 (long independently transcribed non-coding RNA 1547) | 1 | 0.195 | 0.173 |
| LINC01547 (long independently transcribed non-coding RNA 1547) | 2 | 0.0787 | 0.111 |
| ADRA2A (adrenoceptor alpha 2A) | 1 | 0.326 | 0.387 |
| GDAP2 (ganglioside induced differentiation associated protein 2) | 1 | 0.128 | 0.23 |
| CD164 (CD164 molecule) | 1 | 0.109 | 0.28 |
| TSPYL2 (TSPY like 2) | 1 | 0.115 | 0.155 |
| PLCL1 (phospholipase C like 1 (inactive)) | 1 | 0.14 | 0.231 |
| NBEAL2 (neurobeachin like 2) | 1 | 0.165 | 0.516 |
| SCOC (short coiled-coil protein) | 1 | 0.0733 | 0.22 |
| ARPC1B (actin related protein 2/3 complex subunit 1B) | 1 | 0.0568 | 0.0771 |
| SVIL (supervillin) | 1 | 0.0658 | 0.115 |
| PPARGC1B (PPARG coactivator 1 beta) | 1 | 0.086 | 0.192 |
| SLC25A16 | 1 | 0.0651 | 0.101 |
| CCNB2 (cyclin B2) | 1 | 0.0607 | 0.208 |
| ABCB11 (ATP binding cassette subfamily B member 11) | 1 | 0.129 | 0.388 |
| BCKDHB (branched chain keto acid dehydrogenase E1 subunit beta) | 1 | 0.141 | 0.25 |
| TASP1 (taspase 1) | 1 | 0.147 | 0.219 |
| MAP3K5 (mitogen-activated protein kinase kinase kinase 5) | 1 | 0.141 | 0.102 |
| APC (APC regulator of Wnt signaling pathway) | 1 | 0.178 | 0.21 |
| COG1 (component of oligomeric golgi complex 1) | 1 | 0.187 | 1.39 |
| DAD1 (defender against cell death 1) | 1 | 0.0888 | 0.08 |
| RBM26 (RNA binding motif protein 26) | 1 | 0.13 | 0.289 |
